# Test results from patent EP0700301B1, “PEPTIDES AND COMPOUNDS THAT BIND TO ELAM-1” (AFFYMAX TECHNOLOGIES N.V., priority 1993, dated 1994).
# Not every detail of the peptide structures is certain; ends, links or a residue may be inferred. Ends that are not written are not given here.
# Molecular target: T1, immobilized ELAM-1 (Homo sapiens, UniProt P16581)
# T1 construct: truncated form comprising the complete extracellular domain (amino acids 1 through 554); made in house; released with phospholipase C
# T1 sequence (P16581 22-554): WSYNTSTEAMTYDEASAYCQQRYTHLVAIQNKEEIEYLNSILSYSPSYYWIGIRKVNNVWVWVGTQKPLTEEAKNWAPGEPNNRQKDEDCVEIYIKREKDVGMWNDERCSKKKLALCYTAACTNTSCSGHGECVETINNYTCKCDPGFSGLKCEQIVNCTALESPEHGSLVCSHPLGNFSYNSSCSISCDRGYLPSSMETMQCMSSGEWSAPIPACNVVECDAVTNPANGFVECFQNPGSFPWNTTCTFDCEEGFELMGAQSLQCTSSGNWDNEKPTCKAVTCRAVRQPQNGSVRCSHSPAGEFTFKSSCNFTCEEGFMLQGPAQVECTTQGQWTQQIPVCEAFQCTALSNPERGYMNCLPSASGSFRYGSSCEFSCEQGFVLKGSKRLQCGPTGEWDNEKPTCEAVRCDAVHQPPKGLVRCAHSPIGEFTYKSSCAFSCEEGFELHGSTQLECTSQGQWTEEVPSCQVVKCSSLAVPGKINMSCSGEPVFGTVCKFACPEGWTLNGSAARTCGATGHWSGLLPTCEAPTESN
# Type: cell-based
# Details: Figure 5
# Protocol: By comparing test wells with control wells (no receptor), one can determine whether a peptide binds to ELAM-1 specifically. Peptides found to bind specifically to ELAM-1 were then synthesized as the free peptide (no phage) and tested in an HL60 cell adhesion competition assay. The competition assay was carried out similarly to the ELISA, except that labeled HL60 cells were added in addition to the peptide (the control wells were typically of at least two types: (1) no immobilized ELAM-1; and (2) no peptide; see the Examples). Peptides that block the binding of labeled HL60 cells ELAM-1 are preferred compounds of the invention. […] The assay requires HL60 cells labeled with tritiated thymidine. To label the cells, about 10 million HL60 cells are collected by centrifugation (2500 RPM for 3 minutes) and resuspended in 15 mL of DMEM/F12 plus 5% fetal calf serum containing 2 μCi/mL of tritiated thymidine (Amersham). The cells are then placed in a T75 flask and incubated at 37°C for 24 hours. The cells are then collected by centrifugation, washed twice with RPMI/HEPES/0.1% FCS, and resuspended in the same solution at a concentration of about one to two million cells per mL. […] After this incubation, aliquots were removed from each well and placed in scintillation vials; scintillation fluid was added to each vial; and the radioactivity in each aliquot was quantitated by LS counting. […]
sequence,measurement,value
DITWDQLWDLMK,inhibition of cell adhesion,exhibits the desired inhibition of cell adhesion
